Like-named read-outs stand apart in the source and are kept apart here. Peptide text beside a SMILES is read from it.
How the values were obtained:
[1] = Metabolomic profiling of bladder tissue: bladder cancer (tumor) vs control (benign) samples; set-up: species or system human; conditions: bladder tissue; ratio of mean level in bladder cancer (tumor, 98) samples to control (benign, 31) samples
[2] = Metabolomic profiling of bladder tissue for staging: Low stage BCA (T0a, T1), High stage BCA (T2-T4), Benign; set-up: species or system human
[3] = fold change of biomarker level in tissue, High stage BCA (T2-T4) compared to Low stage BCA (T0a-T1)
[4] = fold change of biomarker level in tissue, High stage BCA (T2-T4) compared to benign
[5] = fold change of biomarker level in tissue, Low stage BCA (T0a-T1) compared to benign
[6] = fold change of biomarker level in bladder tissue, High stage BCA (T2-T4) compared to Benign (control)
[7] = fold change of biomarker level in bladder tissue, High stage BCA (T2-T4) compared to Low stage BCA (T0a, T1)
[8] = fold change of biomarker level in bladder tissue, Low stage BCA (T0a, T1) compared to Benign (control)
[9] = fold change of biomarker level in bladder tissue, High stage BCA (T2-T4) compared to Low stage BCA (T0a-T1)
[10] = fold change of biomarker level in bladder tissue, High stage BCA (T2-T4) compared to benign
[11] = fold change of biomarker level in bladder tissue, Low stage BCA (T0a-T1) compared to benign

SMILES	BCA/Control Fold of Change [1]	FC T2-T4 / T0a-T1 [2, 9]	FC T2-T4 / Benign [2, 10]	FC T0a-T1 / Benign [2, 11]	also measured
C[N+](C)(C)CCOP(=O)(O)OP(=O)([O-])OC[C@H]1O[C@@H](n2ccc(N)nc2=O)[C@H](O)[C@@H]1O [cytidine 5′-diphosphocholine]	3.36	–	–	–	FC T2-T4 / T0a-T1 [2, 3]: 0.7; FC T2-T4 / Benign [2, 4]: 2.39; FC T0a-T1 / Benign [2, 5]: 4.26
CN(C)CC(=O)O [dimethylglycine]	1.6	–	–	–	–
CCCCC/C=C\C/C=C\CCCCCCCCCCCC(=O)O [docosadienoate (22:2n6)]	3.01	–	–	–	FC T2-T4 / Benign [2, 6]: 3.32; FC T2-T4 / T0a-T1 [2, 7]: 2.85; FC T0a-T1 / Benign [2, 8]: 1.51
N[C@@H](CCC(=O)N[C@@H](CCC(=O)O)C(=O)O)C(=O)O [gamma-glutamylglutamate]	0.43	–	–	–	FC T2-T4 / Benign [2, 6]: 0.6; FC T2-T4 / T0a-T1 [2, 7]: 1.75; FC T0a-T1 / Benign [2, 8]: 0.4
CSCC[C@H](NC(=O)CC[C@H](N)C(=O)O)C(=O)O [gamma-glutamylmethionine]	0.67	1.01	0.75	0.74	–
NCC(=O)N[C@@H](Cc1ccc(O)cc1)C(=O)O [glycyltyrosine] (H-Gly-Tyr-OH)	0.63	1.07	0.82	0.67	–
NCCc1c[nH]cn1 [histamine]	0.78	1.26	0.73	0.66	–
CC(C)CCC[C@@H](C)[C@H]1CC[C@H]2C3=CC[C@H]4C[C@@H](O)CC[C@]4(C)[C@H]3CC[C@]12C [lathosterol]	1.23	–	–	–	–
CC(C)C[C@H](N)C(=O)N[C@@H](C)C(=O)O [leucylalanine] (H-Leu-Ala-OH)	1.41	–	–	–	FC T0a-T1 / Benign [2]: 1.38; FC T2-T4 / Benign [2]: 1.46; FC T2-T4 / T0a-T1 [2]: 1.19
CSCC[C@H](N)C(=O)O [methionine]	0.84	–	–	–	–
COC1OC(CO)C(O)C(O)C1O (stereo not drawn) [methyl-alpha-glucopyranoside]	4.01	–	–	–	FC T2-T4 / Benign [2, 6]: 1.96; FC T2-T4 / T0a-T1 [2, 7]: 0.2; FC T0a-T1 / Benign [2, 8]: 7.73
O=C1C[C@@H](c2ccc(O)cc2)Oc2cc(O)cc(O)c21 [naringenin]	1.6	–	–	–	–
CC(C)C[C@H](NC(=O)[C@@H](N)Cc1ccccc1)C(=O)O [phenylalanylleucine] (H-Phe-Leu-OH)	0.99	1.5	1.23	1.06	–
O=C(O)C(O)Cc1ccccc1 (stereo not drawn) [phenyllactate (PLA)]	2.24	1.62	2.24	1.48	–
C=C(OP(=O)(O)O)C(=O)O [phosphoenolpyruvate (PEP)]	0.26	–	–	–	FC T2-T4 / T0a-T1 [2, 3]: 3.1; FC T2-T4 / Benign [2, 4]: 0.33; FC T0a-T1 / Benign [2, 5]: 0.28
O=C(O)[C@@H]1CCCN1 [proline]	1.35	1.08	1.43	1.32	–
CCCCCCCCCCCCCCC[C@@H](O)[C@@H](N)CO [sphinganine]	4.41	1.61	2.81	2.24	–
CCCCCCCCCCCCC/C=C/[C@@H](O)[C@H](COP(=O)([O-])OCC[N+](C)(C)C)NC(=O)CCCCCCCCCCCCCCCCC [stearoyl sphingomyelin]	0.34	–	–	–	FC T2-T4 / Benign [2, 6]: 0.47; FC T2-T4 / T0a-T1 [2, 7]: 1.86; FC T0a-T1 / Benign [2, 8]: 0.35
O=C(O)CCCCCCCCCCCCC(=O)O [tetradecanedioate]	0.59	1.08	0.69	0.63	–
CC(C)C[C@H](NC(=O)[C@@H](N)[C@@H](C)O)C(=O)O [threonylleucine] (H-Thr-Leu-OH)	1.35	–	–	–	FC T0a-T1 / Benign [2]: 1.43; FC T2-T4 / Benign [2]: 1.39; FC T2-T4 / T0a-T1 [2]: 1.12
O=C[C@H](O)[C@@H](O)[C@H](O)CO [xylose]	1.94	–	–	–	–

Source: patent publication US20150065366A1, “Biomarkers for Bladder Cancer and Methods Using the Same” (METABOLON, INC., priority 2011, published 2015)
